Assay [1] has as its target Synechocystis PCC 6803 RsfA (Synechocystis PCC 6803). As to the kind of experiment: two-hybrid; baits in pGBKT7g and preys in pGADT7g, haploid strains AH109 and Y187 mated; growth of diploids on medium lacking Leu, Trp and His with 0 to 100 mM 3-AT; quadruplicates.
In assay [2] the target is Streptococcus pneumoniae TIGR4 RsfA (Streptococcus pneumoniae TIGR4). The assay is described as above.

These are yes or no findings as the source states them, for the method shown. Binding calls can cover weak binding; strength is not graded here.

B1: Synechocystis PCC 6803 ribosomal protein L14 (protein, UniProt P73310 1-122)
chain: MIQQQTYLNVADNSGARKLMCLRVLGTGNCTYGGIGDQIIAVVKDALPNMPIKKSDVVRAVIVRTKQPLRRASGMSIRFDDNAAVIINAEGNPRGTRVFGPVARELRDKNFTKIVSLAPEVL
On to B1, for which the binding entry in assay [1] is listed as “binds”.

B2: Streptococcus pneumoniae TIGR4 ribosomal protein L14 (protein, UniProt B1I8K8 1-122)
chain: MIQTETRLKVADNSGAREILTIKVLGGSGRKFANIGDVIVASVKQATPGGAVKKGDVVKAVIVRTKSGARRADGSYIKFDENAAVIIREDKTPRGTRIFGPVARELREGGFMKIVSLAPEVL
For the molecule B2, in assay [2], the binding result is listed as “binds”.

The record behind these values is paper PMC3400551.
